Paper PMC11955551
Results are given in words; binding and its absence hold for the method and conditions named. Sequences can lack the tags named with a protein.

Target: T1, GST-tagged TRF2 WT protein (recombinant TRF2 full length), Q15554
T1 chain: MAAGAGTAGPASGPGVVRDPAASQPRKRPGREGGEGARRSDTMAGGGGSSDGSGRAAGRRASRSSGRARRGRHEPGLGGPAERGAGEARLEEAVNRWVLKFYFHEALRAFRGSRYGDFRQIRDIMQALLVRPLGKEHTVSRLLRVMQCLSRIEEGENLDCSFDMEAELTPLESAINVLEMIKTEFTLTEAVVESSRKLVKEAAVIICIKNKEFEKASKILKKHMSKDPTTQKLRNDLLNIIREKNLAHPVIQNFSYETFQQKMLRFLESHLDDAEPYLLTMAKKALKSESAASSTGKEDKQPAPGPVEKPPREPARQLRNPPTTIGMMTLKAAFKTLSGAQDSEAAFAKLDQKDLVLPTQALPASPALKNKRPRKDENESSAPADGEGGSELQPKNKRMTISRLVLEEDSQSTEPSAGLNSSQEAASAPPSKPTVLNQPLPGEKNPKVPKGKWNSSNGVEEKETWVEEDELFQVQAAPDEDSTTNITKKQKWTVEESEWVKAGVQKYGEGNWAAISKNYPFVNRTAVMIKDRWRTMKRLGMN
Test: pull-down; vitro-vitro: 5 pmol GST-TRF2 with 5 pmol myc-tagged recombinant protein in 1 ml of 20 mM Tris-HCl pH 8, 100 mM KCl, 1 mM EDTA, 0.2% Triton, overnight at 4 °C; Glutathione Sepharose 4B 2 h at RT; five washes; Western blot; both purified
Details: remark: other sources report otherwise

B1: myc-LMNB1 recombinant protein, P20700 1-586 (protein)
chain: MATATPVPPRMGSRAGGPTTPLSPTRLSRLQEKEELRELNDRLAVYIDKVRSLETENSALQLQVTEREEVRGRELTGLKALYETELADARRALDDTARERAKLQIELGKCKAEHDQLLLNYAKKESDLNGAQIKLREYEAALNSKDAALATALGDKKSLEGDLEDLKDQIAQLEASLAAAKKQLADETLLKVDLENRCQSLTEDLEFRKSMYEEEINETRRKHETRLVEVDSGRQIEYEYKLAQALHEMREQHDAQVRLYKEELEQTYHAKLENARLSSEMNTSTVNSAREELMESRMRIESLSSQLSNLQKESRACLERIQELEDLLAKEKDNSRRMLTDKEREMAEIRDQMQQQLNDYEQLLDVKLALDMEISAYRKLLEGEEERLKLSPSPSSRVTVSRASSSRSVRTTRGKRKRVDVEESEASSSVSISHSASATGNVCIEEIDVDGKFIRLKNTSEQDQPMGGWEMIRKIGDTSVSYKYTSRYVLKAGQTVTIWAANAGVTASPPTDLIWKNQNSWGTGEDVKVILKNSQGEEVAQRSTVFKTTIPEEEEEEEEAAGVVVEEELFHQQGTPRASNRSCAIM
B1 was tested, and the binding was “no binding (tested: 5 pmol of each protein in 1 ml)”.
